Results of single-concentration screens

By UniProt entry, the sequences of proteins in these tests, tags left out. Residues count along the entry.
UniProt P9WFT3, whole entry: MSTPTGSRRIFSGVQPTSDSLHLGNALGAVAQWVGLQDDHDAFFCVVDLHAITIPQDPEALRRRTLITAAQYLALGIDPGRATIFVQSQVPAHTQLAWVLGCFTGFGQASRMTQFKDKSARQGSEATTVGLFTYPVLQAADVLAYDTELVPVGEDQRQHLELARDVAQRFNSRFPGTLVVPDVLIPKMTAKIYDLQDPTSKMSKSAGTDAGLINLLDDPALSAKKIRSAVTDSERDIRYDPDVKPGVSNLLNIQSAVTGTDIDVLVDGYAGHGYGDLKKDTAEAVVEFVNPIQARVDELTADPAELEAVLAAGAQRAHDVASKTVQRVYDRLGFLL
UniProt I6X8D2, whole entry: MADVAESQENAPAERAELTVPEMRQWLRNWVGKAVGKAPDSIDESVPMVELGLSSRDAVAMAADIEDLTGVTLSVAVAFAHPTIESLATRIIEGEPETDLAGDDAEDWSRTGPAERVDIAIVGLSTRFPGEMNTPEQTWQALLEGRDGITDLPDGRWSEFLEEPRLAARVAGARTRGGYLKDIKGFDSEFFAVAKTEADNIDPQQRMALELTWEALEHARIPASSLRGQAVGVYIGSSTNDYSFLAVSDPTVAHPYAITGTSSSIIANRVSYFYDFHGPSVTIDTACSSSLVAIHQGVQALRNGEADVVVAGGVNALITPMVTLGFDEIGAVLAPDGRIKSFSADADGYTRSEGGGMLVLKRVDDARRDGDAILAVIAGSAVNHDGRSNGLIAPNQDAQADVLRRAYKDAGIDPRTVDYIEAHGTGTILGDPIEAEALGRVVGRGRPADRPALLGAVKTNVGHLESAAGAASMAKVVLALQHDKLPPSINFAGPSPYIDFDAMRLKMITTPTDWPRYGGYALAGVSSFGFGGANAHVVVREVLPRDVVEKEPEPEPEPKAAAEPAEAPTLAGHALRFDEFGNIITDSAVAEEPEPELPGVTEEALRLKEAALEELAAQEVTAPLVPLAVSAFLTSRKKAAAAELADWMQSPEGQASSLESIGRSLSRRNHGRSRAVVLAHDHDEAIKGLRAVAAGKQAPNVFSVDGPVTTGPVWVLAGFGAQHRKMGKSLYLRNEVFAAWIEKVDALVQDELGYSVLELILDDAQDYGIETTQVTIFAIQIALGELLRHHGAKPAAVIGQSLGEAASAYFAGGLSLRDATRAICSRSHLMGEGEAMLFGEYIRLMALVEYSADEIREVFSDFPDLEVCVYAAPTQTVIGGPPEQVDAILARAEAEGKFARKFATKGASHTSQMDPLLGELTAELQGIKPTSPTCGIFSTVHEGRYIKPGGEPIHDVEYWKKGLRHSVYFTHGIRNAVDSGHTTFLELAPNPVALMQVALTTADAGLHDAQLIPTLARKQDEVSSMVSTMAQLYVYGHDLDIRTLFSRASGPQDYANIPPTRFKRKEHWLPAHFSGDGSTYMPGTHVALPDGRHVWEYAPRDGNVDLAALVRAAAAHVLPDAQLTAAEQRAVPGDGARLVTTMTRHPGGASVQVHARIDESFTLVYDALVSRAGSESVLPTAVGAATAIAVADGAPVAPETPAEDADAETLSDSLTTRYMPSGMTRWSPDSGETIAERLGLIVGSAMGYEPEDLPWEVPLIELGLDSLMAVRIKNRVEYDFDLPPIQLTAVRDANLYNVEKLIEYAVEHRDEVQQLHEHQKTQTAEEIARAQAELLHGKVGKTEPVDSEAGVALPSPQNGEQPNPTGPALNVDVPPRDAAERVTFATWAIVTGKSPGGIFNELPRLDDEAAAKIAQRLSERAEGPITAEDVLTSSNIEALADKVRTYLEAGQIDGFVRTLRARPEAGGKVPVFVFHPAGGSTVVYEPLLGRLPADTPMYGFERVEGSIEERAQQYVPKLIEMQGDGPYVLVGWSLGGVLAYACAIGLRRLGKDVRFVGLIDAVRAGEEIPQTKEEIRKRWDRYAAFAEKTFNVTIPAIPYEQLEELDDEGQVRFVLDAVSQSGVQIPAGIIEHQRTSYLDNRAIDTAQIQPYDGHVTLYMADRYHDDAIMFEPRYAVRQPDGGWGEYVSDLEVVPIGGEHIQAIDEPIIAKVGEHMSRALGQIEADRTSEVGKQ
UniProt Q4DA54, 1-478: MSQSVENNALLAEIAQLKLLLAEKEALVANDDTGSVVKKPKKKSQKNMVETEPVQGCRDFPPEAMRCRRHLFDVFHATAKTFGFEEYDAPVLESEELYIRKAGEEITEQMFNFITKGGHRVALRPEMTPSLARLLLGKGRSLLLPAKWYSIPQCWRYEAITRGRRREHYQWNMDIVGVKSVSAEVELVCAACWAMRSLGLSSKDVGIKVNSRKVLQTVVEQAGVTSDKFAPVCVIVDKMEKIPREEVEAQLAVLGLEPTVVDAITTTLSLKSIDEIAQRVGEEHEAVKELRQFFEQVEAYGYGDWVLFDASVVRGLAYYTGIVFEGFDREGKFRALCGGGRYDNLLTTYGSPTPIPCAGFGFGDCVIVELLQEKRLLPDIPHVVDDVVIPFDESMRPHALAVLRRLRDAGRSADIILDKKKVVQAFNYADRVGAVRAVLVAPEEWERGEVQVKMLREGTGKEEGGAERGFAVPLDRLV

The values are deposited in ChEMBL (CHEMBL3988442, “University of Dundee, Small-Polar-MMV Screening Library” (2021)).

A: 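Enzyme assay of tryptophanyl-tRNA synthetase; the read-out is not stated. Target: Tryptophan-tRNA ligase, Mycobacterium tuberculosis (UniProt P9WFT3). Compounds at 10 µM. Higher most likely means stronger inhibition; the record gives no direction and few retests gave an IC50. Size under these conditions: about 65,000 compounds, about 64 of them at 50% or above in at least one test.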
B: 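Cell assay of Leishmania donovani living inside macrophages; the read-out is not stated. Compounds at 30 µM. Higher reads as stronger inhibition (inferred: compounds with an IC50 in retests scored well above the rest). Of about 69,000 compounds tested this way, about 1,000 (1.5%) reached 50% or more in at least one test.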
C: 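Polyketide synthase Pks13, Mycobacterium tuberculosis (UniProt I6X8D2). Enzyme assay of the thioesterase domain of polyketide synthase 13; the read-out is not stated. Tested at 30 µM. The record gives no direction; the compounds picked for IC50 retests had high values, so higher reads as stronger inhibition. About 67,000 compounds were tested under these conditions; 0.46% (about 300) showed 50% or more at least once.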
D: 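Enzyme assay of histidyl-tRNA synthetase; the read-out is not stated. Target: Histidine-tRNA ligase, Trypanosoma cruzi CL Brener (UniProt Q4DA54). Concentration: 30 µM. Higher reads as stronger inhibition (inferred: compounds with an IC50 in retests scored well above the rest). Size under these conditions: about 69,000 compounds, about 31 of them at 50% or above in at least one test.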

The filed quantity is “Percent Effect” (%). The record does not define 0% and 100%; most values in the screen are far below 50% and negative numbers occur (in some assays of this library far below -100). This is an unselected part of the compounds tested. Two or more numbers in one place are separate tests of the same structure; such repeats can differ widely.

SMILES: CC(C)(C)C(=O)NCCC(=O)NS(=O)(=O)c1cccnc1
A: 10.87%
B: -7.864%
C: 14.13%
D: 3.03%

SMILES: CC(=O)N1CCN(c2cc(-n3cccc3)ncn2)CC1
A: -0.9167%
B: -6.731%
C: 2.081%
D: 1.554%

SMILES: COc1cc(C(=O)N(Cc2cnn(C)c2)C(C)C)ccc1C
A: -1.687%
B: 21.37%
C: -8.969%
D: 7.514%

SMILES: Cc1nc(C)n(CC2CN(CCC(=O)N3CCCCC3)CCO2)n1 (stereo not shown)
A: -7.147%
B: 11.66%
C: -3.359%
D: 4.956%

SMILES: CN(C)S(=O)(=O)c1ccc(CNC(=O)c2cn3c(n2)CNCC3)cc1
A: -4.295%
B: -27.29%
C: 9.875%
D: 2.976%

SMILES: COC(=O)[C@H](C)NC(=O)c1cc(-c2cccc(Cl)c2)no1
A: 0.3178%
B: 14.78%
D: 0%

SMILES: Cc1noc(C)c1CN1CCn2cc(CN3CCCCC3)nc2C1
C: 10.09%
D: 16.2%

SMILES: c1ccc(-c2nc3c(c(NCc4n[nH]c5c4CCC5)n2)CCNC3)cc1
A: -1.288%
B: 100.2%
C: -7.727%
D: 20.63%

SMILES: O=C(CCn1ccccc1=O)N1CCCC(COc2ccc(F)cc2)C1 (stereo not shown)
A: 0.000005%
B: -30.31%
C: 0.5656%
D: 8.155%

SMILES: Cc1cc(C)n(CC(=O)NCc2ccccn2)n1
A: 1.583%
B: -8.648%
C: -12.47%
D: 9.845%

SMILES: O=C(C1=NN(Cc2ccccc2)c2ccccc2S1(=O)=O)N1CCCC1
A: -6.155%
B: 17.69% & 15.84%
C: -53.94%
D: 7.216%

SMILES: COc1cccc(N2CCN(C(=O)COc3c(C)occc3=O)CC2)c1
A: 1.704%
B: 20.57% & -7.794%
C: 3.35%
D: 0%

SMILES: COc1ccc(C(=O)Nc2cnn(CCN3CCOCC3)c2)c(O)c1
A: -4.583%
B: 27.22%
C: 1.636%
D: 7.101%

SMILES: [H][C@]12CC[C@]([H])(CN(C(=O)C3CCC3)C1)N(C(=O)c1cccc(C#N)c1)C2
B: 15.5%

SMILES: O=C(O)C(F)(F)F.[H][C@@]12CCCO[C@]1([H])[C@H](NC(=O)c1cscn1)CN2Cc1cccs1
B: 7.2%

SMILES: CN(C)c1ncnc2c1CCN(Cc1nccs1)CC2
A: -2.885%
C: -14.98%
D: 3.448%

SMILES: CN(C)C(=O)c1coc(COc2ccccc2)n1
A: 0.5863%
B: 25.47%
C: -10.35%
D: -0.8%

SMILES: Cc1n[nH]cc1CNC1CCN(c2ccc(F)cc2)CC1.Cl
B: 0.4955%

SMILES: CCN(Cc1noc(C)n1)C(=O)C(c1ccccc1C)N(C)C (stereo not shown)
A: -2.093%
B: -4.647%
C: -9.41%
D: 1.064%

SMILES: Cc1ccc(CN(Cc2ccccn2)C(=O)[C@H]2CC[C@@H](N)C2)s1
A: -1.505%
B: 7.267%
C: -10.9%
D: -4.902%

SMILES: Cc1cccc(CN2C[C@@H]3CN(C(=O)NC(C)C)C[C@@H]3C2=O)n1
A: -1.744%
C: -15.77%
D: 5.825%

SMILES: COCCNC(=O)C1CN(Cc2ccncc2)Cc2ccnn2C1.O=C(O)C(F)(F)F.O=C(O)C(F)(F)F.O=C(O)C(F)(F)F (stereo not shown)
B: 39.82%

SMILES: Cc1cccc(C(=O)N2CCc3ncnc(C4CCOC4)c3CC2)n1 (stereo not shown)
A: -1.592%
C: -3.619%
D: 3.061%

SMILES: [H][C@@]12CN(C(=O)Cc3ccccn3)C[C@]1([H])[C@@H]2CC(=O)Nc1cccnc1
B: -0.5527%

SMILES: CCc1nc(CN2CCCN(C(=O)c3cccn3C)CC2)cs1
A: -3.665%
B: 4.73%
D: 12.05%

SMILES: CC(C)(C)C(=O)NCCn1ccc(-c2ccncc2)n1
A: 1.639%
B: 7.804%
C: -7.756%
D: 1.653%

SMILES: O=C(Cc1ccc2c(c1)CCCC2)NCCNc1cnccn1
A: -7.484%
B: 40.88%
C: 19.56%
D: 8.092%

SMILES: CC(NC(=O)NCC1(c2ccc(F)cc2)CCC1)c1nncn1C (stereo not shown)
A: 6.14%
B: 18.74%
C: -8.273%
D: -2.273%

SMILES: Cc1ccc(C2CCCN2CC(=O)N(CCC#N)c2ccccc2)cc1 (stereo not shown)
A: -3.431%
B: 1.971%
C: -4.779%
D: 3.448%

SMILES: O=C(NC[C@H]1C[C@@H]2CCN1C[C@@H]2CN1CCCCC1)Nc1ccsc1
A: -4.142%
C: -23.5%
D: 5.941%

SMILES: COCCCNC(=O)NCc1nc(C)c(C)o1
A: -0.2018%
B: 9.739%
C: -10.53%
D: 2.174%

Some entries from above, unchanged:

- Cc1cccc(CN2C[C@@H]3CN(C(=O)NC(C)C)C[C@@H]3C2=O)n1 | A: -1.744%; C: -15.77%; D: 5.825%
- COCCNC(=O)C1CN(Cc2ccncc2)Cc2ccnn2C1.O=C(O)C(F)(F)F.O=C(O)C(F)(F)F.O=C(O)C(F)(F)F (stereo not shown) | B: 39.82%
- COc1ccc(C(=O)Nc2cnn(CCN3CCOCC3)c2)c(O)c1 | A: -4.583%; B: 27.22%; C: 1.636%; D: 7.101%